Reference: article PMC11189624
Results are given in words; binding and its absence hold for the method and conditions named. Binding can be weak; no strength is given. Tags and fused reporters may be left off the sequences shown.

Columns and labels:
[1] = target: Flag-Myo5a-MTD (residues 1106–1467), bacterial-expressed; experiment: pull-down; Flag pulldown: 0.5 uM Flag-Myo5a-MTD with 1 uM GST-tagged Mlph truncations, anti-FLAG M2 agarose, Pulldown Buffer I, 4 °C, 2 hr; eluted with FLAG peptide; SDS-PAGE with CBB staining; both purified
[2] = target: Flag-Myo5a-MTD (residues 1106–1467), bacterial-expressed; experiment: pull-down; GST pulldown of GST-Mlph-ABD and Flag-Mlph-EFBD in the presence of Flag-Myo5a-MTD; Western blot with anti-Flag; both purified

B1: GST-Mlph-ΔRBD (residues 148–590) (domain or fragment, UniProt Q91V27 148-590)
chain: GGGSEPSLEEGNGDSEQTDEDGDLDTEARDQPLNSKKKKRLLSFRDVDFEEDSDHLVQPCSQTLGLSSVPESAHSLQSLSGEPYSEDTTSLEPEGLEETGARALGCRPSPEVQPCSPLPSGEDAHAELDSPAASCKSAFGTTAMPGTDDVRGKHLPSQYLADVDTSDEDSIQGPRAASQHSKRRARTVPETQILELNKRMSAVEHLLVHLENTVLPPSAQEPTVETHPSADTEEETLRRRLEELTSNISGSSTSSEDETKPDGTFLGGSPKVCTDTGHMETQERNPRSPGNPARPTKSTDEELSEMEDRVAMTASEVQQAESEISDIESRIAALRAAGLTVKPSGKPRRKSGIPIFLPRVTEKLDRIPKTPPADPDDQAKMPKATTAVPSLLRRKYSPSSQGVDSGSFDRKSVYRGSLTQRNPNGRRGTARHIFAKPVMAQQP
For B1, the binding [1] was “binds”.

B2: Flag-Mlph-EFBD (residues 241–400) (domain or fragment, UniProt Q91V27 241-400)
chain: EGLEETGARALGCRPSPEVQPCSPLPSGEDAHAELDSPAASCKSAFGTTAMPGTDDVRGKHLPSQYLADVDTSDEDSIQGPRAASQHSKRRARTVPETQILELNKRMSAVEHLLVHLENTVLPPSAQEPTVETHPSADTEEETLRRRLEELTSNISGSST
In the case of B2, the binding [2] is reported as “binds”.
